Results: article doi:10.1101/2025.06.18.660405 (bioRxiv, 2025)
No constants are given. Whether binding was seen depends on the method and setting.

Chains of the proteins cited; added tags and fusions are not shown.
UniProt P03612: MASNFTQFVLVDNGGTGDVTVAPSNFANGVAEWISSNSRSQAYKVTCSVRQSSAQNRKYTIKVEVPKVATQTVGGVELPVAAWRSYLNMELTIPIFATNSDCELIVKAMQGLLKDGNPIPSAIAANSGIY

Target: MBP fused to the viral MS2 coat protein (viral (MS2)) (UniProt P03612)
Test: pull-down

B1: dephosphorylated Nopp140 (treated with calf intestinal alkaline phosphatase) (protein, UniProt Q14978 1-699)
chain: MADAGIRRVVPSDLYPLVLGFLRDNQLSEVANKFAKATGATQQDANASSLLDIYSFWLKSAKVPERKLQANGPVAKKAKKKASSSDSEDSSEEEEEVQGPPAKKAAVPAKRVGLPPGKAAAKASESSSSEESSDDDDEEDQKKQPVQKGVKPQAKAAKAPPKKAKSSDSDSDSSSEDEPPKNQKPKITPVTVKAQTKAPPKPARAAPKIANGKAASSSSSSSSSSSSDDSEEEKAAATPKKTVPKKQVVAKAPVKAATTPTRKSSSSEDSSSDEEEEQKKPMKNKPGPYSSVPPPSAPPPKKSLGTQPPKKAVEKQQPVESSEDSSDESDSSSEEEKKPPTKAVVSKATTKPPPAKKAAESSSDSSDSDSSEDDEAPSKPAGTTKNSSNKPAVTTKSPAVKPAAAPKQPVGGGQKLLTRKADSSSSEEESSSSEEEKTKKMVATTKPKATAKAALSLPAKQAPQGSRDSSSDSDSSSSEEEEEKTSKSAVKKKPQKVAGGAAPSKPASAKKGKAESSNSSSSDDSSEEEEEKLKGKGSPRPQAPKANGTSALTAQNGKAAKNSEEEEEEKKKAAVVVSKSGSLKKRKQNEAAKEAETPQAKKIKLQTPNTFPKRKKGEKRASSPFRRVREEEIEVDSRVADNSFDAKRGAAGDWGERANQVLKFTKGKSFRHEKTKKKRGSYRGGSISVQVNSIKFDSE
Question: B1 was tested. Which binding did it give?
Answer: no binding
